# PubChem BioAssay AID1224830 | NIAID – 2016
# Test: 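Genes whose knock-down alters the TNF-alpha reporter response to LPS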 (primary screen)
# Cells: human THP-1 monocytic leukaemia cells, TNF dual-luciferase reporter clone, PMA-differentiated to macrophage-like cells
# Knock-down reagent: siRNA pool against human genes, 50 nM
# Time to read-out: LPS for 4 h, given about 3 days after siRNA transfection
# Conditions: bacterial LPS (TLR4 ligand), 10 ng/ml
# Detection: 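Ratio of firefly to renilla light, scaled to the plate median and expressed as a robust z-score per replicate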
# Scale: TNF reporter robust z-score: higher = stronger TNF reporter response to LPS
# Call rule: 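a well is active when its z-score exceeds 2.8 or falls below -1.5; control wells carry no call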
# In all, the deposit lists about 18,000 reagents; this is a random part of them. About 2,900 of all reagents (16%) were called active. 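Calls are made per well; low scores hint the gene aids the LPS response, high scores that it dampens it.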 A number with no mark means an inactive call. Repeated entries: four replicate wells of each siRNA pool.
gene symbol,TNF reporter robust z-score
PTPN7,0.12
PTPN7,0.91
PTPN7,-0.21
PTPN7,-0.41
TCF7L1,-0.84
TCF7L1,-0.57
TCF7L1,0.34
TCF7L1,0.57
DNAJC1,-0.58
DNAJC1,-0.91
DNAJC1,-0.95
DNAJC1,-0.45
POLD1,-0.44
POLD1,1.08
POLD1,-0.19
POLD1,0.17
CDCA7,-0.9
CDCA7,-0.28
CDCA7,-0.75
CDCA7,0.22
UBQLN3,-1.2
UBQLN3,-0.37
UBQLN3,-0.74
UBQLN3,-0.49
OR8H2,0.52
OR8H2,1.2
OR8H2,1.47
OR8H2,2.46

6 entries from above, ordered by “TNF reporter robust z-score”, ascending.
gene symbol,TNF reporter robust z-score
UBQLN3,-0.74
UBQLN3,-0.49
OR8H2,0.52
OR8H2,1.2
OR8H2,1.47
OR8H2,2.46

More reagents:
gene symbol,TNF reporter robust z-score
KCNH7,-0.31
KCNH7,-0.62
KCNH7,-1.29
KCNH7,-1.3
ARFGAP2,-0.33
ARFGAP2,-0.13
ARFGAP2,0.04
ARFGAP2,0.25
ABCB1,-0.11
ABCB1,0.25
ABCB1,1.06
ABCB1,0.75
SPTSSA,0.63
SPTSSA,-0.44
SPTSSA,-0.52
SPTSSA,0.12
ACADS,1.64
ACADS,1.61
ACADS,1.45
ACADS,2
